# At least one compound was matched to its structure with a doubt left.
# What was measured:
# [1] = test system: 3T3-L1 adipocytes; test: 2-NBDG glucose uptake in 3T3-L1 adipocytes; format: cell-based; conditions: inhibitor 1 μM
# Experimental: (§1) To determine whether CYSTM1 can increase glucose uptake in adipocytes, in vitro assays of 2-NBDG uptake in response to CYSTM1 treatment and potential inhibitors in 3T3-L1 adipocytes and mouse primary adipocytes were performed. 3T3-L1 preadipocytes were maintained in Dulbecco's modified Eagle's medium (DMEM) supplemented with 10% fetal bovine serum. Two days after confluence, 3T3-L1 cells were induced to differentiation using the standard adipogenic cocktail (0.5 mM IBMX, 1 μM dexamethasone and 10 μg/ml insulin) that was applied for 4 days and followed by 10 μg/ml insulin treatment for additional 4 days. The culture medium was changed every other day. The differentiated cells were maintained in normal serum containing DMEM. Mouse primary adipocytes were isolated from 10 to 12-week-old male C57BL/6J mice using a collagenase digestion protocol as described, briefly, white fat pads were removed, minced and digested using collagenase for 60-90 min at 37° C. in Krebs-Ringers phosphate HEPES buffer (KRPH) (15 mM HEPES, pH 7.4, 118 mM NaCl, 4.8 mM KCl, 1.2 mM MgSO4, 1.3 mM CaCl2, 1.2 mM KHPO3, 0.1% BSA). The stromal vascular fraction was separated from the adipocytes and cultured using DMEM and differentiated the same as 3T3-L1 adipocytes as described above. […] NBDG uptake was measured using a fluorescent microplate reader (Thermo Scientific Varioskan LUX Multimode Microplate Reader).
# [2] = test system: mouse primary adipocytes; test: 2-NBDG glucose uptake in mouse primary adipocytes; format: cell-based; conditions: inhibitor 1 μM
# Experimental: as §1
structure (smiles),measurement,setting,value
c1cc(-c2cnn3cc(-c4ccc(OCCN5CCCCC5)cc4)cnc23)ccn1 [Dorsomorphin],inhibition of CYSTM1-induced increase in glucose uptake,"[1]; 3T3-L1 adipocytes, 5 μM, 10 μM, CYSTM1 1 μM (FIG. 8B)",inhibited by the dose-dependent manner
same,effect of co-treatment on CYSTM1-induced glucose uptake,"[1]; 3T3-L1 cells, CYSTM1 1 μM",blocked
same,inhibition of CYSTM1-induced increase in glucose uptake,"[2]; mouse primary adipocytes, 5 μM, 10 μM, CYSTM1 1 μM (FIG. 8D)",inhibited by the dose-dependent manner
same,effect of co-treatment on CYSTM1-induced glucose uptake,"[2]; primary adipocytes, CYSTM1 1 μM",blocked
